These are yes or no findings as the source states them, for the method shown. For some of these results: Binding seen in cells or lysates may run through a third protein. Some results given as binding are weak or reduced against the parent protein; the word gives no strength. For some of these results: Tags and fused reporters may be left off the sequences shown. One block for each molecule: values may come before it.
Tests used:
[1] = molecular target: T1, GST–PHear (NECAP 1 PHear domain, aa 1–133, fused to GST) (mouse) (UniProt Q9CR95); assay: pull-down; GST fusion proteins precoupled to glutathione-Sepharose, rat brain extract, 1 h at 4°C, 10 mM HEPES pH 7.4, 1% Triton X-100, 50 mM NaCl; Western blot; only the target purified
T1 sequence: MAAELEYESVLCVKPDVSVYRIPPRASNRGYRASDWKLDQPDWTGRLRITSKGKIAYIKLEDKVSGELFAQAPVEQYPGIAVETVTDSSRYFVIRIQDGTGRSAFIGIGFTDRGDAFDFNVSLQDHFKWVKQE

Sequences of proteins named here, by UniProt entry; tags and fusion partners are left off. Residues count along the entry.
UniProt P63010, residues 1-668: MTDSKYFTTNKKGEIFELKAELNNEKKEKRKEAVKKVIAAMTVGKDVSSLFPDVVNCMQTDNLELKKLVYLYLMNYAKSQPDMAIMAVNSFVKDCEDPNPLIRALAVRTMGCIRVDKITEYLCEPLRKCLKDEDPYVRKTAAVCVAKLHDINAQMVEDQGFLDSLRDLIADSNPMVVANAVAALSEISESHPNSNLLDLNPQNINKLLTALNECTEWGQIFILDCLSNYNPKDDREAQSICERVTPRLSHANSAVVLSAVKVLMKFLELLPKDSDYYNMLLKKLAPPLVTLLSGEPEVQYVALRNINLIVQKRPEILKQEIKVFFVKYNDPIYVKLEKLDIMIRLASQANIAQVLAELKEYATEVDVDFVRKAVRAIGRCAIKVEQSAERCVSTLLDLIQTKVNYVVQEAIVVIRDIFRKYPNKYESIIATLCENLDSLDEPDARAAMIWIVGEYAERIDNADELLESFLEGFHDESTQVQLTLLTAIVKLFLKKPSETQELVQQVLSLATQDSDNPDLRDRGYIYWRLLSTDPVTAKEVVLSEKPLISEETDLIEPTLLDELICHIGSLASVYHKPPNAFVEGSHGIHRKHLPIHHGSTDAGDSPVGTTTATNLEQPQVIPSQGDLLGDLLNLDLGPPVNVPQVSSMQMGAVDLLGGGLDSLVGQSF
UniProt Q62910: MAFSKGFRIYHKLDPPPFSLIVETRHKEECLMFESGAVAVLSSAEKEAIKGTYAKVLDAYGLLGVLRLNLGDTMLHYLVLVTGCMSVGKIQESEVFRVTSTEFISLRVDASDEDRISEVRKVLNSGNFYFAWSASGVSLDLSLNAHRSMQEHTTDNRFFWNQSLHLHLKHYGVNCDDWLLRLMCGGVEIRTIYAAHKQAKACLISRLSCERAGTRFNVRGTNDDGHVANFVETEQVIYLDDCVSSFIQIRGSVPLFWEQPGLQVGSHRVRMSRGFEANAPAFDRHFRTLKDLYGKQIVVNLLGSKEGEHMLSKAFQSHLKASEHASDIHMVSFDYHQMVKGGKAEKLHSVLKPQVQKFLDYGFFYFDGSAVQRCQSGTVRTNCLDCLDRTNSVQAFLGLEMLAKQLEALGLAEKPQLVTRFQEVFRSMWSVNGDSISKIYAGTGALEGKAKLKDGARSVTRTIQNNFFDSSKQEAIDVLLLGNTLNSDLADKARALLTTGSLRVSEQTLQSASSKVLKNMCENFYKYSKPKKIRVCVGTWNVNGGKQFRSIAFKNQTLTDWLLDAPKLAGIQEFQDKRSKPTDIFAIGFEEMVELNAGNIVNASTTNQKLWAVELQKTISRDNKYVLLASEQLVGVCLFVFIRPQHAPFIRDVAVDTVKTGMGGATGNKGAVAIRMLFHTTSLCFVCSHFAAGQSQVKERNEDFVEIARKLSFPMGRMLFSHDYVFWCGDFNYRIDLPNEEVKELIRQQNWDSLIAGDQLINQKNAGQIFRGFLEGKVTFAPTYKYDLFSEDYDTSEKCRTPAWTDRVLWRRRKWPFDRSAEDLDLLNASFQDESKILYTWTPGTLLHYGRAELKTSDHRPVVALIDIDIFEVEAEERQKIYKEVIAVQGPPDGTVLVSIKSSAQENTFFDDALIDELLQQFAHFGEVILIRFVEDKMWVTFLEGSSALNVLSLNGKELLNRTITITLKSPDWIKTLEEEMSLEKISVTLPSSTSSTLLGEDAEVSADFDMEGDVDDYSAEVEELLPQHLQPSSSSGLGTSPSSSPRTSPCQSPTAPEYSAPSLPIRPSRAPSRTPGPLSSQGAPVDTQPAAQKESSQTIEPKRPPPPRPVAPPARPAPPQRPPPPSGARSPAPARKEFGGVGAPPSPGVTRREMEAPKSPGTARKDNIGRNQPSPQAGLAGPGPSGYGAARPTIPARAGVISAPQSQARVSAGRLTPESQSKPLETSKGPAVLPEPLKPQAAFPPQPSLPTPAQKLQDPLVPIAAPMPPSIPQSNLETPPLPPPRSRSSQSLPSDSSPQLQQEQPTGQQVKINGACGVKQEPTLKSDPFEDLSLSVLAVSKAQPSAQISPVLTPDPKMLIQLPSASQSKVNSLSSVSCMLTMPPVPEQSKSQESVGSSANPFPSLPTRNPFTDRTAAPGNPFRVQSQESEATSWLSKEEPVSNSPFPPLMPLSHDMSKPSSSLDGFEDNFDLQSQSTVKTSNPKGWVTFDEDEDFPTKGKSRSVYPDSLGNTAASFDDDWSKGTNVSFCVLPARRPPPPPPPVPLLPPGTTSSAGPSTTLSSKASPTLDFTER
UniProt P49951, residues 1-579: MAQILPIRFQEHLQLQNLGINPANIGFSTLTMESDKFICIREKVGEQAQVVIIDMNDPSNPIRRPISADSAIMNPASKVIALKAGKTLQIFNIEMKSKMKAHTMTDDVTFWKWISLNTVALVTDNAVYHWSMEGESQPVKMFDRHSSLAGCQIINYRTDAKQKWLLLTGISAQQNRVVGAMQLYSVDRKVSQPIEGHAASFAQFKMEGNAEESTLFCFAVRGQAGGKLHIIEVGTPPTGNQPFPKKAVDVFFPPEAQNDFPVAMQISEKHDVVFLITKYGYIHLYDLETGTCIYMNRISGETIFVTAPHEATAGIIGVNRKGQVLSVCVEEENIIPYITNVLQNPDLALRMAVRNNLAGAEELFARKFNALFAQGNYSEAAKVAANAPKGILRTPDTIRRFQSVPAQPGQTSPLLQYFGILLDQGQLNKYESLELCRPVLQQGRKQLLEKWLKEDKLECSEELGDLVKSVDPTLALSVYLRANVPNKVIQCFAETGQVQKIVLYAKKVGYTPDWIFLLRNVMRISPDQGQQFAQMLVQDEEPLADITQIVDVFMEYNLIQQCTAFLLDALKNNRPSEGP

β2-linker peptide (Ac-…) = molecular target: T2, β2-linker peptide (Ac-…); assay: NMR titration; competition: 15N-labeled PHear with unlabeled β2-linker peptide (1:4) titrated with unlabeled clathrin terminal domain (up to 1:4:2), 30°C; both purified
T2 sequence (peptide, N-terminal acetyl (Ac-)): SQGDLLGDLLNLDLPPVN

[2] = molecular target: Flag-tagged β2-adaptin trunk+linker (aa 1–668) (UniProt P63010); assay: far-Western, overlay or dot blot; Flag-tagged α- and β2-adaptin variants immunoprecipitated from HEK-293-T lysates, resolved by SDS-PAGE, overlaid with purified GST fusion proteins; both purified
[3] = molecular target: T1, GST–PHear (NECAP 1 PHear domain, aa 1–133, fused to GST) (mouse); assay: pull-down; GST fusion proteins precoupled to glutathione-Sepharose, lysates of transfected HEK-293-T cells, 1 h at 4°C, 10 mM HEPES pH 7.4, 1% Triton X-100, 50 mM NaCl; Western blot; only the target purified
GST–PHear R95A (mouse) [4] = molecular target: T3, GST–PHear R95A (mouse) (UniProt Q9CR95); assay: as above
T3 sequence: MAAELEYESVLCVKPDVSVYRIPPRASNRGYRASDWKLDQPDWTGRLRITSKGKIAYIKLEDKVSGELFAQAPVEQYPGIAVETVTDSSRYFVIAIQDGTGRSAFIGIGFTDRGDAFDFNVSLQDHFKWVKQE

[5] = molecular target: T1, GST–PHear (NECAP 1 PHear domain, aa 1–133, fused to GST) (mouse); assay: pull-down; GST fusion proteins precoupled to glutathione-Sepharose, rat brain extract, 1 h at 4°C, 10 mM HEPES pH 7.4, 1% Triton X-100, 50 mM NaCl; Western blot; only the target purified; remark: listed apart in the source
GST–PHear R95A (mouse) [6] = molecular target: T3, GST–PHear R95A (mouse); assay: as above

B1: GST–PHear (NECAP 1 PHear domain, aa 1–133, fused to GST) (domain or fragment, UniProt Q9CR95 1-133)
chain: MAAELEYESVLCVKPDVSVYRIPPRASNRGYRASDWKLDQPDWTGRLRITSKGKIAYIKLEDKVSGELFAQAPVEQYPGIAVETVTDSSRYFVIRIQDGTGRSAFIGIGFTDRGDAFDFNVSLQDHFKWVKQE
binding [2]: binds

B3: GST–PHear–Ex (NECAP 1 aa 1–178 fused to GST) (domain or fragment, UniProt Q9CR95 1-178)
chain: MAAELEYESVLCVKPDVSVYRIPPRASNRGYRASDWKLDQPDWTGRLRITSKGKIAYIKLEDKVSGELFAQAPVEQYPGIAVETVTDSSRYFVIRIQDGTGRSAFIGIGFTDRGDAFDFNVSLQDHFKWVKQETEISKESQEMDNRPKLDLGFKEGQTIKLSIGNITAKKGGASKPRA
binding [2]: binds

B4: amphiphysin I (endogenous, brain lysate) (protein, UniProt O08838 1-683)
chain: MADIKTGIFAKNVQKRLNRAQEKVLQKLGKADETKDEQFEEYVQNFKRQEAEGTRLQRELRGYLAAIKGMQEASMKLTESLHEVYEPDWYGREDVKMVGEKCDVLWEDFHQKLVDGSLLTLDTYLGQFPDIKNRIAKRSRKLVDYDSARHHLEALQSSKRKDESRISKAEEEFQKAQKVFEEFNVDLQEELPSLWSRRVGFYVNTFKNVSSLEAKFHKEIAVLCHKLYEVMTKLGDQHADKAFSIQGAPSDSGPLRIAKTPSPPEEASPLPSPTASPNHTLAPASPAPVRPRSPSQTRKGPPVPPLPKVTPTKELQQENIINFFEDNFVPEINVTTPSQNEVLEVKKEETLLDLDFDPFKPDVTPAGSAAATHSPMSQTLPWDLWTTSTDLVQPASGGSFNDFTQPQDTSLFTMQTDQNMAETEQALPTEPQAEEPPTTAAAPTAGLDLGLEMEEPKEEAAIPPGTDAGETVGTEGSTGEEAEAEKAALPAGEGESPEGAKIDVESTELASSESPQAAELEAGAPQEKVIPSVVIEPASNHEGEEHQETTTGTETREATEDVAPQGPAGEKQELATEPTPLDSQAATPAPAGAVDASLSAGDAAQELPPGFLYKVETLHDFEAANSDELTLQRGDVVLVVPSDSEADQDAGWLVGVKESDWLQYRDLATYKGLFPENFTRHLE
binding [5]: binds
binding (GST–PHear R95A (mouse) [6]): binds

B6: Flag-tagged FCHo1 full-length (aa1–837) (protein, UniProt Q8K285 1-873)
chain: MSYFGEHFWGDKNHGFEVLYHCVKQGPVATKELADFIRERANIEETYSKAMAKLSKLASNGTPMGTFAPLWEVFRVSSDKLALCHLELTRKLHDLLKDVLRYGEEQLKTHKKCKEEVLGTVDAVQMLSGVGQLLPKSRENYLSRCMDLERLRRENTSQKEMDKAETKSKKAADSLRRSVDKYNSARADFEIKMLDSALRFQAMEEAHLQHMKALLGSYAHSVEDTHVQIGQVHEEFKQNVENVTVDMLLRKFAESKGTGREKPGPLDFDAYSSAALQEAMKRLRGAKAFRLPGLSRREPRASVDFLESDSGVPPEVDDEGFTVRPDISQNNGAEPPRFSSSDSDFDDEEPRKFYVHIKPAPTRAVACSSEAAAAQLRATAGSLILPPGPGGTMKRHSSRDTSGKPQRPRSAPRTGSCAEKPLASEEPLSKSLFGPPLESAFDHDDFTGSSSLGFTSSPSPFSSSSPENVEDSGLDSPSHAAPGPSPESWVPRPGTPQSPPTCRAQHPEPRGLMPRAPSPGPWGPEGGADSLTPADPTREGLAATLRRPRSRKVSCPLTRSNGDLCRSLSPSPLGSSAPTIPPDRPSFSTQMGHGISRGPSPVVLGSQDALPVATAFTEYVHAYFRGHSPSCLARVTGELTMTFPAGIVRVFSGTPPPPVLSFRLVNTAPVEHFQPNADLIFSDPSQSDPETKDFWLNMAALTEALQHQAEQNPTASYYNLVLLRYQFSRPGPESVPLQMSAHWQCGPTLTRVSVEYSYRAGATAVSTPLTNVQILLPVGEPVTSVRLQPAATWNTEEKRFTWKLPDVCEAGGSGHLSASWQPQSGPSTPSPVAAQFTSEGATLSGLDLELLGGGYRMSLVKRRFATGMYLVSC
binding [3]: binds

More lines, now with the values ahead:

binding [1]: binds
Molecule: synaptojanin 170 (endogenous, brain lysate) (from UniProt Q62910 1-1574)

binding (β2-linker peptide (Ac-…)): binds
Molecule: unlabeled clathrin terminal domain (aa 1–579) (from UniProt P49951 1-579) (domain or fragment)

binding [3]: binds
binding (GST–PHear R95A (mouse) [4]): binds
B2: mCherry-tagged FCHo2 (protein, UniProt Q3UQN2 1-809)
chain: MVMAHFVENFWGEKNNGFDVLYHNMKHGQISTKELADFVRERATIEEAYSRSMTKLAKSASNYSQLGTFAPMWDVFKTSTEKLANCHLDLVRKLQELIKEVQKYGEEQVKSHKKTKEEVAGTLEAVQAIQNITQALQKSKENYTAKCVEQERLKKEGATQREIEKAAVKSKKATDTYKLYVEKYALTKADFEQKMTETAQKFQDIEETHLIHIKEIIGSLSNAVKEIHLQIGQVHEEFINNMANTTIESLIQKFAESKGTGKERPGLIEFEECDPASAVEGIKPRKRKTFALPGIIKKEKDAESVECPDADSLNIPDVDEEGFSIKPEANQNDTKENHFYSSSDSDSEDEEPKRYRIEIKPAHPNNLHHTMASLDELKVSIGNITLSPAVSRHSPVQMNRNSSNEELTKSKPSSLPTEKGTNDLLAWDPLFGSSLESSSAPLTSSSSARPTTPLSLGTLVPPPRPASRPKLASGKLSGINEIPRPFSPPVTSNTSPPPTAPLARAESSSSISSSASLSAANTPTVGVSRGPSPVSLGNQDTLPVAIALTESVNAYFKGADPTKCIVKITGDVTISFPSGIIKVFTSNPSPAVLCFRVKNISRLEQILPNSQLVFSDPSQCDSNTKDFWMNMQAVTIYLKKLSEQNPAASYYNVDVLKYQVSSNGIQSTPLNLATYWKCSASTTDLRVDYKYNPEAMVAPSVLSNIQVVVPVDGGVTNMQSLPPAIWNAEQMKAFWKLSGISEKSDSGGSGSLRAKFDLSEGPSKPTTLAVQFLSEGNTLSGVDIELVGTGYRLSLVKKRFATGRYLADC

binding [3]: binds
binding (GST–PHear R95A (mouse) [4]): binds
B5: mCherry-tagged FCHo1 (protein, UniProt Q8K285 1-873)
chain: MSYFGEHFWGDKNHGFEVLYHCVKQGPVATKELADFIRERANIEETYSKAMAKLSKLASNGTPMGTFAPLWEVFRVSSDKLALCHLELTRKLHDLLKDVLRYGEEQLKTHKKCKEEVLGTVDAVQMLSGVGQLLPKSRENYLSRCMDLERLRRENTSQKEMDKAETKSKKAADSLRRSVDKYNSARADFEIKMLDSALRFQAMEEAHLQHMKALLGSYAHSVEDTHVQIGQVHEEFKQNVENVTVDMLLRKFAESKGTGREKPGPLDFDAYSSAALQEAMKRLRGAKAFRLPGLSRREPRASVDFLESDSGVPPEVDDEGFTVRPDISQNNGAEPPRFSSSDSDFDDEEPRKFYVHIKPAPTRAVACSSEAAAAQLRATAGSLILPPGPGGTMKRHSSRDTSGKPQRPRSAPRTGSCAEKPLASEEPLSKSLFGPPLESAFDHDDFTGSSSLGFTSSPSPFSSSSPENVEDSGLDSPSHAAPGPSPESWVPRPGTPQSPPTCRAQHPEPRGLMPRAPSPGPWGPEGGADSLTPADPTREGLAATLRRPRSRKVSCPLTRSNGDLCRSLSPSPLGSSAPTIPPDRPSFSTQMGHGISRGPSPVVLGSQDALPVATAFTEYVHAYFRGHSPSCLARVTGELTMTFPAGIVRVFSGTPPPPVLSFRLVNTAPVEHFQPNADLIFSDPSQSDPETKDFWLNMAALTEALQHQAEQNPTASYYNLVLLRYQFSRPGPESVPLQMSAHWQCGPTLTRVSVEYSYRAGATAVSTPLTNVQILLPVGEPVTSVRLQPAATWNTEEKRFTWKLPDVCEAGGSGHLSASWQPQSGPSTPSPVAAQFTSEGATLSGLDLELLGGGYRMSLVKRRFATGMYLVSC

binding [5]: binds
binding (GST–PHear R95A (mouse) [6]): binds
B7: amphiphysin II (endogenous, brain lysate) (protein, UniProt O08839 1-588)
chain: MAEMGSKGVTAGKIASNVQKKLTRAQEKVLQKLGKADETKDEQFEQCVQNFNKQLTEGTRLQKDLRTYLASVKAMHEASKKLSECLQEVYEPEWPGRDEANKIAENNDLLWMDYHQKLVDQALLTMDTYLGQFPDIKSRIAKRGRKLVDYDSARHHYESLQTAKKKDEAKIAKPVSLLEKAAPQWCQGKLQAHLVAQTNLLRNQAEEELIKAQKVFEEMNVDLQEELPSLWNSRVGFYVNTFQSIAGLEENFHKEMSKLNQNLNDVLVSLEKQHGSNTFTVKAQPSDSAPEKGNKSPSPPPDGSPAATPEIRVNHEPEPASGASPGATIPKSPSQLRKGPPVPPPPKHTPSKEMKQEQILSLFDDAFVPEISVTTPSQFEAPGPFSEQASLLDLDFEPLPPVASPVKAPTPSGQSIPWDLWEPTESQAGVLPSGEPSSAEGSFAVAWPSQTAEPGPAQPAEASEVVGGTQEPGETAASEATSSSLPAVVVETFSATVNGAVEGSTTTGRLDLPPGFMFKVQAQHDYTATDTDELQLKAGDVVLVIPFQNPEEQDEGWLMGVKESDWNQHKELEKCRGVFPENFTERVQ

From article PMC3794858, “NECAP 1 Regulates AP-2 Interactions to Control Vesicle Size, Number, and Cargo During Clathrin-Mediated Endocytosis” (PLoS Biology, 2013)
